Results from patent publication US7067261B2 (priority 2001, dated 2006).
At least one compound was matched to its structure with a doubt left.

System: JAK2
Format: cell-based

`CCOc1nc2cccc(C(=O)O)c2n1Cc1ccc(-c2ccccc2-c2nnn[nH]2)cc1` [candesartan] was tested, and the “effect on Ang II inhibition of nicotine-induced JAK2 phosphorylation” value was “not”.
